PubChem BioAssay AID493014 (National Center for Advancing Translational Sciences (NCATS), 2011)
Hit rate of the full screen: of about 340,000 compounds, about 170 (0.05%) were called active. The shares of active, inactive and inconclusive entries below differ from those in the screen. Calls follow the shape of the dose curve; as a rule, active = well fitted inhibition curve with a large enough effect in the signal ratio, with a control signal flat (not every such curve was filed as active); inconclusive = small, poorly fitted or top-dose-only effect, or effect the other way, or a change in a side signal; inactive = flat fitted curve, though single readings scatter; the % refers to the signal ratio. Potencies beside an inconclusive call are fits to weak or partial responses and may not hold up.
Potency is read from the fitted curve at half-maximal effect.

Assay: qHTS Assay to Find Inhibitors of Chronic Active B-Cell Receptor Signaling;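 as to activity change, negative = inhibition: plate controls were basal doxycycline-induced cells for no effect and cells given 10 µM MG132 for full effect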
Details: ABC-DLBCL IkBa-CBG/CBR reporter, luminescence ratio (green luciferase fused to IkBa over red control in TMD8 lymphoma cells), 4 h; activity change, negative = inhibition: at 46.1 µM (top of the series)
Outline: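 Concentration-response series (up to 46 uM) were applied to TMD8 dual-reporter cells for 4 h at 37C with doxycycline. Green/red ratio, after filter-overlap correction, defined %Activity; red signal alone was normalised to basal cells and zero luminescence.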
For `CC(=O)N/C(=C\c1ccccc1)C(=O)OCC(=O)NC(C)C12CC3CC(CC(C3)C1)C2` (centres undefined), the activity change, negative = inhibition was “inactive”.
In the case of `Cc1cccc(OCC(=O)N/N=C/c2sc(=O)n(Cc3cccc(C(=O)O)c3)c2Cl)c1`, the activity change, negative = inhibition is reported as inconclusive: 16.7%.
With `N#CC1=C(N)Oc2n[nH]c(-c3ccc(F)cc3)c2C1c1cccc(OC(=O)N2CCOCC2)c1` (centres undefined) the activity change, negative = inhibition was inconclusive: 19.3%.
In the case of `CCN(CC)c1ccc(C=C2C(=O)OC(c3ccccc3)OC2=O)cc1` (centres undefined), the activity change, negative = inhibition is reported as “inactive”.
With `CCCCc1nc2cc(C(=O)N3CCCCC3COC)ccc2o1` (centres undefined) the activity change, negative = inhibition was “inactive”.
With `CC(C)C(C(=O)Nc1ccc2c(c1)OCCO2)N1C(=O)c2ccccc2C1=O` (centres undefined) the activity change, negative = inhibition was inconclusive: 7.28%.
With `O=C(CCCN1C(=O)NC2(CCCC2)C1=O)Nc1ccc(F)cc1` the activity change, negative = inhibition was inconclusive: -2.79%.
In the case of `COc1ccc2c(c1)CCC/C2=N\Nc1nc(C(=O)NN)cs1`, the Potency is reported as inconclusive: 11.2 µM [falling, partial curve].
In the case of `COC(=O)CN1C(=O)N(c2ccccc2)C(N(O)C(=O)Nc2ccccc2)C1(C)C` (centres undefined), the activity change, negative = inhibition is reported as inconclusive: 0.389%.
With `CC(=O)c1ccc(S(=O)(=O)N2CCNCC2)cc1` the activity change, negative = inhibition was “inactive”.
In the case of `O=C(Nc1ccc(Cl)c(Cl)c1)C1CC(=O)N(c2ccc(Br)cc2)C1` (centres undefined), the activity change, negative = inhibition is reported as “inactive”.
With `COc1cc(C(=O)N/N=C/c2ccc(OC)c(CN3CCN(c4ccc(F)cc4)CC3)c2)ccc1O` the Potency was inconclusive: 10 µM [falling, partial curve, poor fit].
For `COc1ccc(NC(=O)CSc2nnc(C3CCCCC3)n2N)cc1OC`, the activity change, negative = inhibition was inconclusive: -7.37%.
With `O=C(Nc1cccc(F)c1)/C(=C\c1ccco1)NC(=O)c1cccs1` the Potency was inconclusive: 35.5 µM [falling, single point].
For `CCCC(=O)Nc1nc2c(c(=O)[nH]1)CCCC2`, the activity change, negative = inhibition was inconclusive: 0.0324%.
In the case of `CCSc1nc(N)c2c3c(sc2n1)CCC3`, the activity change, negative = inhibition is reported as inconclusive: -0.197%.
With `O=C(CSc1nnc(-c2ccncc2)n1CC1CCCO1)Nc1ccccc1Cl` (centres undefined) the activity change, negative = inhibition was inconclusive: 10.6%.
For `CC(=O)Nc1ccc(C(=O)Nc2nnc(CCc3ccccc3)s2)cc1`, the activity change, negative = inhibition was inconclusive: -19.1%.
For `CCCCNC(=S)NNC(=O)c1csc(CC)c1`, the activity change, negative = inhibition was inconclusive: -0.471%.
In the case of `CN(C)CC#CCC(O)(c1ccccc1)c1ccccc1`, the activity change, negative = inhibition is reported as “inactive”.
In the case of `Cc1c(OCc2ccc(C(=O)O)o2)ccc2c3c(c(=O)oc12)CCC3`, the Potency is reported as inconclusive: 14.1 µM [falling, partial curve].
With `Cc1ccc(S(=O)(=O)N(C)C)cc1NC(=O)CN1C(=O)NC(Cc2c[nH]c3ccccc23)C1=O` (centres undefined) the Potency was inconclusive: 22.4 µM [falling, single point].
With `CCOC(=O)c1sc(NC(=O)CSc2nc(C)cc(C)c2C#N)c(C#N)c1C` the activity change, negative = inhibition was “inactive”.
For `CN(C)S(=O)(=O)c1cccc(NC(=O)CC23CC4CC(CC(C4)C2)C3)c1`, the Potency was inconclusive: 17.8 µM [falling, partial curve, poor fit].
With `O=C(c1ccc(S(=O)(=O)N2CCCC2)cc1)N1CCC(CN2C(=O)c3cccc4cccc(c34)C2=O)CC1` the activity change, negative = inhibition was “inactive”.
In the case of `CC(=O)Nc1ccc(S(=O)(=O)N(C)CC(=O)Nc2ccccc2N2CCCC2)cc1`, the Potency is reported as inconclusive: 29.1 µM [falling, partial curve, poor fit].
For `CN1C/C(=C/c2ccncc2)C(=O)/C(=C/c2ccncc2)C1`, the Potency was inconclusive: 3.98 µM [falling, full curve].
In the case of `O=C(Nc1nnc(-c2ccccc2)o1)c1cccc(S(=O)(=O)N2CCOCC2)c1`, the Potency is reported as inconclusive: 18.4 µM [falling, single point].
For `CCCn1c(SCC(=O)O)nc2ccccc21`, the activity change, negative = inhibition was inconclusive: 5.24%.
In the case of `CC1CCCCN1CC(=O)Nc1ccc(Oc2ccccc2)cc1` (centres undefined), the activity change, negative = inhibition is reported as inconclusive: 15.4%.
With `Clc1ccc(CCNc2nc3ccccc3n3nnnc23)cc1` the activity change, negative = inhibition was inconclusive: -22.7%.
In the case of `CC(C)(C)c1nnc(N/N=C/c2cc(Br)ccc2O)n(N)c1=O`, the Potency is reported as inconclusive: 10.3 µM [falling, partial curve].
For `Cc1ccccc1NS(=O)(=O)c1ccc2[nH]cc(C(=O)N(C)Cc3ccco3)c(=O)c2c1`, the activity change, negative = inhibition was inconclusive: -0.88%.
For `Cc1cc(CSc2ccccc2)ccc1NC(=O)COc1ccccc1C`, the activity change, negative = inhibition was inconclusive: 11.8%.
In the case of `Cc1c(-n2c(=S)[nH]c3ccccc3c2=O)c(=O)n(-c2ccccc2)n1C`, the activity change, negative = inhibition is reported as inconclusive: 7.52%.
For `Cc1c(Cl)cccc1NC(=S)NC1CC1`, the activity change, negative = inhibition was “inactive”.
In the case of `C=CCNC(=O)c1cc2c(=O)c3ccccc3oc2nc1C`, the Potency is reported as inconclusive: 14.1 µM [falling, partial curve, poor fit].
In the case of `CCn1nc(C(=O)Nc2ccc(N3CCOCC3)cc2)c2ccccc2c1=O`, the activity change, negative = inhibition is reported as inconclusive: -0.645%.
With `CCOc1cc(CNC(CC)CO)ccc1OCC(=O)Nc1cccc(C(F)(F)F)c1` (centres undefined) the activity change, negative = inhibition was inconclusive: -6.88%.
In the case of `O=C(CSc1nc(=O)n(CCCN2CCOCC2)c2c1CCC2)Nc1ccc(F)cc1F`, the activity change, negative = inhibition is reported as inconclusive: -7.69%.
With `O=C(CN1C(=O)C(=O)N(Cc2ccco2)C1=O)c1c[nH]c2ccccc12` the activity change, negative = inhibition was inconclusive: -20.5%.
With `COC(=O)C1(Cc2cc(-c3ccc(OC)cc3OC)no2)CCN(C(=O)OC(C)(C)C)CC1` the activity change, negative = inhibition was inconclusive: -5.44%.
With `CCOc1ccccc1C(=O)NCC(=O)Nc1ncccc1C` the activity change, negative = inhibition was inconclusive: -3.02%.
In the case of `O=C(Nc1ccccn1)c1ccc2c(c1)OCCO2`, the Potency is reported as inconclusive: 35.5 µM [rising, single point].
For `CN1CCN(C(=O)/C=C/c2ccc([N+](=O)[O-])cc2)CC1`, the activity change, negative = inhibition was inconclusive: 3.64%.
With `CCOc1ncccc1C(=O)OCc1c(Cl)cccc1Cl` the activity change, negative = inhibition was inconclusive: 0.111%.
In the case of `O=C1NC(=O)/C(=C\c2ccccc2OCc2ccccc2)S1`, the activity change, negative = inhibition is reported as inconclusive: 14.3%.
With `O=Cc1ccc(OCCOc2ccc([N+](=O)[O-])cc2)cc1` the activity change, negative = inhibition was inconclusive: 3.07%.
In the case of `COc1cc(/C=C/C(=O)OCC(=O)c2ccc[nH]2)cc(OC)c1OC`, the activity change, negative = inhibition is reported as inconclusive: -1.23%.
With `CCCSc1nnc(-c2cnn(-c3ccccc3)c2-n2cccc2)n1C` the activity change, negative = inhibition was inconclusive: 7.44%.
For `O=C(Cc1ccc([N+](=O)[O-])cc1)NC1CCCCCC1`, the activity change, negative = inhibition was inconclusive: 16.9%.
For `Cc1noc(C)c1S(=O)(=O)Nc1ccc2c(c1)C(=O)N([C@H](C)CO)C[C@H](C)[C@@H](CN(C)S(=O)(=O)c1ccccc1)O2`, the activity change, negative = inhibition was inconclusive: -1.16%.
In the case of `COC(=O)C1=CN(CCCN2CCCC2=O)C=C(C(=O)OC)C1c1ccccc1C(F)(F)F`, the activity change, negative = inhibition is reported as inconclusive: 0.627%.
For `CC(C)n1cc(C(=O)c2cc(Br)ccc2O)cc(C#N)c1=O`, the activity change, negative = inhibition was “inactive”.
For `Cc1cc(=O)oc2cc(NC(=O)c3ccccc3OC(F)F)ccc12`, the Potency was inconclusive: 20 µM [falling, single point].
In the case of `O=C(O)c1cccc(S(=O)(=O)NNc2ccccc2C(F)(F)F)c1`, the activity change, negative = inhibition is reported as “inactive”.
In the case of `Cc1ccc2c(c1)c1c3n2CCN(C(=O)Cn2c(-c4ccccc4)noc2=O)C3CCC1` (centres undefined), the activity change, negative = inhibition is reported as inconclusive: 13.2%.
For `Cc1ccccc1NC(=O)NNC(=O)OC(C)(C)C`, the Potency was inconclusive: 1.41 µM [falling, full curve, poor fit].
With `COc1ccc(C(=O)NCC(=O)OCC(=O)N2CC(C)OC(C)C2)cc1OC` (centres undefined) the activity change, negative = inhibition was inconclusive: 1.59%.
With `COc1ccc(NC(=O)C(=O)N/N=C/c2cccnc2)c(OC)c1` the Potency was inconclusive: 17.8 µM [falling, single point].
For `CC(=O)NC(c1ccco1)c1cc(Cl)c2cccnc2c1O` (centres undefined), the activity change, negative = inhibition was “inactive”.
With `Cc1cc(C)c(OCC(=O)OCC(=O)NCc2cccs2)c(C)c1` the activity change, negative = inhibition was inconclusive: 6.14%.
In the case of `CCCCCCCC(=O)OCC(=O)[C@@]1(O)CC[C@H]2[C@@H]3CCC4=CC(=O)CC[C@]4(C)[C@H]3[C@@H](O)C[C@@]21C`, the activity change, negative = inhibition is reported as inconclusive: -3.99%.
With `CCn1cnc2c1c(=O)n(Cc1cccc(Br)c1)c(=O)n2Cc1ccccc1` the activity change, negative = inhibition was “inactive”.
With `Cc1ccc(C2=NNC(=Nc3ccc(F)cc3)SC2)cc1` the Potency was inconclusive: 12.6 µM [falling, partial curve].
With `CC(C)CC(=O)NC(c1ccccc1)c1c(O)ccc2ccccc12` (centres undefined) the Potency was inconclusive: 10 µM [rising, partial curve].
With `COc1cccc(/C=N/NC(=O)c2ccc(CN3c4cccc5cccc(c45)S3(=O)=O)cc2)c1` the activity change, negative = inhibition was inconclusive: -2.57%.
For `O=C(O)c1cccc(N=NN2CCCCCC2)c1`, the Potency was inconclusive: 29.1 µM [falling, partial curve].
With `CCCSC1=NN2CCCC(=O)N=C2S1` the activity change, negative = inhibition was inconclusive: 15.5%.
For `CCOc1cccc(C(=O)NC(=S)Nc2ccc(N3CCCC3)cc2)c1`, the Potency was inconclusive: 9.2 µM [falling, partial curve].
With `O=c1c(-c2ccnn2-c2cccc(Cl)c2)cnc2n1CCS2` the Potency was inconclusive: 18.4 µM [rising, partial curve].
For `COc1ccc(CCNC(=O)Cn2ccc3cc(S(=O)(=O)N4CCCC4)ccc32)cc1OC`, the activity change, negative = inhibition was “inactive”.
For `CC(=O)Nc1ccc(N2CCN(Cc3ccccc3F)CC2)cc1`, the activity change, negative = inhibition was inconclusive: 8.35%.
For `O=C(CSc1ccccc1)Nc1nc2ccccc2[nH]1`, the Potency was inconclusive: 6.51 µM [falling, single point].
For `CCS(=O)(=O)Nc1ccc(C2=NN(C(=O)c3ccco3)C(c3cccs3)C2)cc1` (centres undefined), the activity change, negative = inhibition was inconclusive: 0%.
With `Cc1cccc(C(=O)NC(=S)NNC(=O)COc2c(C)cccc2C)c1` the activity change, negative = inhibition was inconclusive: -1.27%.
For `O/N=C/c1ccc(-c2ccccc2OC(F)(F)F)o1`, the activity change, negative = inhibition was inconclusive: -4.69%.
With `C[n+]1cc[nH]c1SCC(=O)c1ccccc1` the Potency was inconclusive: 23.1 µM [falling, partial curve].
In the case of `CCOC(=O)c1c(NC(=O)C2=C(C)NC(=S)NC2c2ccccc2C(F)(F)F)sc(C)c1C` (centres undefined), the activity change, negative = inhibition is reported as inconclusive: 4.34%.
